Test results from article doi:10.1101/2022.06.03.494746.
These are yes or no findings as the source states them, for the method shown. Binding seen in cells or lysates may run through a third protein. Here binding means that the protein was enriched with, or labelled near, the bait; the list need not be complete.

B1: RH8 (protein, UniProt Q8RXK6 1-505)
chain: MNNRGRYPPGIGAGRGAFNPNPNYQSRSGYQQHPPPQYVQRGNYAQNHQQQFQQAPSQPHQYQQQQQQQQQWLRRGQIPGGNSNGDAVVEVEKTVQSEVIDPNSEDWKARLKLPAPDTRYRTEDVTATKGNEFEDYFLKRELLMGIYEKGFERPSPIQEESIPIALTGRDILARAKNGTGKTAAFCIPVLEKIDQDNNVIQAVIIVPTRELALQTSQVCKELGKHLKIQVMVTTGGTSLKDDIMRLYQPVHLLVGTPGRILDLTKKGVCVLKDCSVLVMDEADKLLSQEFQPSVEHLISFLPESRQILMFSATFPVTVKDFKDRFLTNPYVINLMDELTLKGITQFYAFVEERQKIHCLNTLFSKLQINQSIIFCNSVNRVELLAKKITELGYSCFYIHAKMLQDHRNRVFHDFRNGACRNLVCTDLFTRGIDIQAVNVVINFDFPKNAETYLHRVGRSGRFGHLGLAVNLITYEDRFNLYRIEQELGTEIKQIPPHIDQAIYCQ
B2: VPS15 (protein, UniProt Q9M0E5 1-1494)
chain: MGNKIARTTQVSATEYYLHDLPSSYNLVLKEVLGRGRFLKSIQCKHDEGLVVVKVYFKRGDSIDLREYERRLVKIKDVFLSLEHPHVWPFQFWQETDKAAYLVRQYFYSNLHDRLSTRPFLSLVEKKWLAFQLLLAVKQCHEKDICHGDIKCENVLLTSWNWLYLADFASFKPTYIPYDDPSDFSFFFDTRGQRLCYLAPERFYEHGGETQVAQDAPLKPSMDIFAVGCVIAELFLEGQPLFELAQLLAYRRGQHDPSQHLEKIPDPGIRKMILHMIQLEPEARLSAEDYLQNYVGVVFPNYFSPFLHTLYCCWNPLPSDMRVATCQGIFQEILKKMMENKSGDEIGVDSPVTSNPMNASTVQETFANHKLNSSKDLIRNTVNSKDEIFYSISDALKKNRHPFLKKITMDDLGTLMSLYDSRSDTYGTPFLPVEGNMRCEGMVLIASMLCSCIRNIKLPHLRREAILLLRSCSLYIDDDDRLQRVLPYVVALLSDPTAIVRCAAMETLCDILPLVRDFPPSDAKIFPEYIFPMLSMLPEDTEESVRICYASNIAKLALTAYGFLIHSFQLSDVGVLNELNSQQISTTPASETPSHLQKANGNAQLQQLRKTIAEVVQELVMGPKQTPNVRRALLQDIGELCFFFGQRQSNDFLLPILPAFLNDRDEQLRSVFFEKIVYVCFFVGQRSVEEYLLPYIDQALSDQTEAVIVNALECLSTLCKSSFLRKRALLQMIECVYPLLCYPSQWVRRAVVTFIAASSECLGAVDSYAFIAPVIRSYLSRLPASIASEEGLLSCLKPPVTREVVYRIFEKTRNPEFMAKQRKMWYSSSPQSKDWESVDLFDKDAGELNSVECRAEQKQSVEGKKQIKSASKQPEVQGKYAEKDAKLRIPRNPRPNASNTVELRDPVYPEKLQFSGFMAPYVSGANSFIEPENIPLYSFSMDKRAATNPPVASESSLQMNSLGMGSLSVPWMDSMSKSFNLASSVPVPKLISGSFHVGTNPKQFYRVVHEPESRENDQISSAISKFQDLGVSSSSKSASVTSEDASSPADLVGEPSLSRTSVPDSGWKPRGVLVAHLQEHRSAVNDIATSSDHSFFVSASDDSTVKVWDSRKLEKDISFRSRLTYHLEGSRGMCTTMLRNSTQVVVGASDGVIHMFSIDHISRGLGNVVEKYSGIVDIKKKDVKEGALVSLLNYTADSLSGPMVMYSTQNCGIHLWDTRSDLDAWTLKANPEEGYVSSLVTSPCGNWFVSGSSRGVLTLWDLRFRVPVNSWQYPIICPIEKMCLCFLPPSVSVSTTMKPLIYVAAGCNEVSLWNAEGGSCHQVLRVANYENETDVSEFQWKLPSNKVNPKPNHRQNMSSKYRIEELNEPPPRLPGIRSLLPLPGGDLLTGGTDLKIRRWDYSSPERSYCICGPSLKGVGNDDFYELKTNTGVQFVQETKRRPLATKLTAKAVLAAAATDTAGCHRDSVQSLASVKLNQRLLISSSRDGAIKVWK
B3: RH12 (protein, UniProt Q9M2E0 1-498)
chain: MNTNRGRYPPGVGTGRGAPPNPDYHQSYRQQQPPQDQQYVQRGYSQNPQQMQLQQQHQQQQQQQQWSRRPQLPGNASNANEVVQQTTQPEASSDANGQDWKATLRLPPPDTRYQTADVTATKGNEFEDYFLKRDLLKGIYEKGFEKPSPIQEESIPIALTGSDILARAKNGTGKTGAFCIPVLEKIDPNNNVIQAMILVPTRELALQTSQVCKELSKYLNIQVMVTTGGTSLRDDIMRLHQPVHLLVGTPGRILDLTKKGVCVLKDCAMLVMDEADKLLSAEFQPSLEELIQFLPQNRQFLMFSATFPVTVKAFKDRHLRKPYVINLMDQLTLMGVTQYYAFVEERQKVHCLNTLFSKLQINQSIIFCNSVNRVELLAKKITELGYSCFYIHAKMVQDHRNRVFHEFRNGACRNLVCTDLFTRGIDIQAVNVVINFDFPRTSESYLHRVGRSGRFGHLGLAVNLVTYEDRFKMYQTEQELGTEIKPIPSNIDQAIYCQ
B4: Annexin 1 (ANNAT1) (protein, UniProt Q9SYT0 1-317)
chain: MATLKVSDSVPAPSDDAEQLRTAFEGWGTNEDLIISILAHRSAEQRKVIRQAYHETYGEDLLKTLDKELSNDFERAILLWTLEPGERDALLANEATKRWTSSNQVLMEVACTRTSTQLLHARQAYHARYKKSLEEDVAHHTTGDFRKLLVSLVTSYRYEGDEVNMTLAKQEAKLVHEKIKDKHYNDEDVIRILSTRSKAQINATFNRYQDDHGEEILKSLEEGDDDDKFLALLRSTIQCLTRPELYFVDVLRSAINKTGTDEGALTRIVTTRAEIDLKVIGEEYQRRNSIPLEKAITKDTRGDYEKMLVALLGEDDA
B5: ELC (protein, UniProt Q9LHG8 1-398)
chain: MVPPPSNPQQVQQFLSSALSQRGPSSVPYEESNKWLIRQHLLNLISSYPSLEPKTASFMHNDGRSVNLLQADGTIPMPFHGVTYNIPVIIWLLESYPRHPPCVYVNPTADMIIKRPHAHVTPSGLVSLPYLQNWVYPSSNLVDLVSDLSAAFARDPPLYSRRRPQPPPPSPPTVYDSSLSRPPSADQSLPRPFPPSPYGGGVSRVQVQHVHHQQQSDDAAEVFKRNAINKMVEMVHSDLVSMRRAREAEAEELLSLQAGLKRREDELNIGLKEMVEEKETLEQQLQIISMNTDILDSWVRENQGKTKNLVDLDVDNAFECGDTLSKQMLECTALDLAIEDAIYSLDKSFQDGVVPFDQYLRNVRLLSREQFFHRATGSKVRAAQMEVQVAAIAGRLHS
B6: SMG7 (protein, UniProt A9QM73 1-1059)
chain: MMTLQMDKTTASSSWERAKSIYDEIAELANKRQKAGNPPDPNLLQLLREKYEAIILESHTFSEQHNIEIPLWQLHYKRIEYFRLHINRVLASSTSTAAQNVKGPSKAEQIAQLKLQFRTFLSEATGFYHDMILKIRSKYGLPLGSFSEDQQSQNLSDKDGKELAEVQKALKSCHRCLIYLGDLARYKGMYAEGDSRSRQYASASSYYLQAASLWPASGNPHHQLAIVASYSRDEFVTTYRYFRSLAVEYPFPTARDNLIVAFDKNRQSYEKLFVPSKDSSKRLTGKGRGKGADISLKDATLVAGPEKDKVTIANEMLKAFSIRFVHLNGILFTRTSLETFFDVLASTSSSLREVISLGSAKELTLGIDTSDSALFIVRVVTMLIFSVHNSKKETEGQSYAEIVQRVEPARNSLTASFELLGLVIEKCVQLGDPSSSYFLPGVLVFVEWLACCPDIALGSDPDDRQTAVRNSFWNQFVVFFNQVLSLGPTFIDDVEDETCFSNMSLYDERETENRLALWEDYELRGFLPLLPAQTILNFSRKHSFGTEGPKEKKARIKRIFAAGKALTSVIKVDQNHVYFDSKKKKFLVGVKPADDFLDSHSSPPKACNALQDNQVMIDHNSPIMQLDQQIYMGEEDDDDEVIVFKPLVTEKRKEASDQIYVPSGGFRKSDQVTTMGDFKALSGSDVAFHENQILQARGNASIQVPASVGANLLGPLQPSTQSQAMHMQQVQTQVQVPASVGANLLGLLLTSTQSQAMHMQQVQTQAVNPQPAQSLAASRLQPIQSQVAQPLPSRVVHFQQTQAQVSHVSPAHSQSTSFGGGSKWSPEEAASLASSLSGFAQLGNGHVMRNEMQGNHGVSYYPAHSLPVHQSYNGNGMGGMPYSQSRTPEAVFPPKIDPVLSSGVVADGLGVQSSLAKKNPISRAFRHLGPPPGFNSVPAKLQKEPAPGSELSGNNHLPVDDYSWLDGYQAQSSRGVGLNSSLNYATSGKPEHLGSTGNGLNGPANFPFPGKQVPTSQVQADFPYFQNPQKDNFVDKNHQSTQLPEQYQGQSTWSSRHFV

The binders below were run against DCP1-TurboID-6xHis-3xFLAG (Arabidopsis) (assay: proximity labelling).

binding | Binder
binds | B1
binds | B2
binds | B3
binds | B4
binds | B5
binds | B6
